Target: T1, YePEPT (Yersinia enterocolitica, UniProt A0A2R9TD79, F311Y/K314A)
T1 construct: gene YEP4_02370

Amino acid sequences for entries named in this document (tags omitted).
UniProt A0A2R9TD79, whole entry F311Y/K314A: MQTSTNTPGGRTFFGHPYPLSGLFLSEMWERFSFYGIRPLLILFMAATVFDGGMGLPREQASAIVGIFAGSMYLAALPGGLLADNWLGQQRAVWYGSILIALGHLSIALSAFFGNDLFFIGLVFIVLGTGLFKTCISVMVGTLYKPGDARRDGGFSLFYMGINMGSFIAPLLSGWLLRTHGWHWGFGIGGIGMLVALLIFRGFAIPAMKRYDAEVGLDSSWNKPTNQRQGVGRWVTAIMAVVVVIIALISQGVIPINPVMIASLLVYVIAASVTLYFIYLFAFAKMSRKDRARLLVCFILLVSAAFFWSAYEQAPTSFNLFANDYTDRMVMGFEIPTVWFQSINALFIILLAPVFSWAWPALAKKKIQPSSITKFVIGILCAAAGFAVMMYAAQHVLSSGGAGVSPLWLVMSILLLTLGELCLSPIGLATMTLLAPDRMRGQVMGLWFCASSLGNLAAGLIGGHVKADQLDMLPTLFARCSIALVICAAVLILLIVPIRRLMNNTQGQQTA

In the case of `CC1=C(C(=O)O)N2C(=O)[C@@H](NC(=O)[C@H](N)c3ccccc3)[C@H]2SC1` [compound 5, cefalexin], the “[3H]Ala-Ala uptake competition in E. coli at 5 mM (no transport seen by SSM elec)” value is reported as “increased inhibition by all four β-lactam antibiotics containing an α-amino group (i.e., ampicillin, amoxicillin, cefalexin and cefadroxil)”.
